Assay results taken from PubChem BioAssay AID1347426 (Functional Genomics Laboratory (NCATS/FGL), 2020).
The whole screen tested about 31,000 sequences, of which about 1,400 (4.5%) were called active.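 How the source made its calls: active means median seed-adjusted z-score above 1 or below -1; inactive means the rest.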 The list shows a part of the results.

Test: Novel Modifiers of Survival Motor Neuron (SMN) Protein: Gene Identification via Genome-wide siRNA Screen;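 further: luminescence tracks full-length SMN protein made from the SMN2 reporter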
Details: HEK293T SMN2-luciferase reporter, siRNA knockdown, 72 h; actives lie on both sides
Summary of the method: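 Each of three siRNAs per gene is reverse-transfected (1 pmol) into reporter HEK293T cells whose luciferase output tracks SMN protein level. After 72 h culture, ONE-Glo luminescence is control-normalized, log10-transformed and MAD-standardized; Common Seed Analysis deprioritizes seed-driven hits.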

Sequence	median seed-adjusted z-score
CCACAAUAUCUCUAACAGATT against GUCY1A2	inactive: -0.186
CGCAUUUGGUGGACCCAAATT against CDKN1B	inactive: 0.244
GGUCUGUUCUUCUUACAGATT against PRKCB1	inactive: 0.0463
CUGCAGCUUUUAUCACAAATT against SLC25A33	inactive: -0.0252
UUAUGACAGUUGAAGCUUATT against NDUFC2	inactive: -0.0481
GGAAGGUUUUUCAUUGACATT against KCTD16	inactive: 0.00219
CCUGCCUACUGGAUGCUUATT against XBP1	inactive: 0.387
GGCCUUCGUGUACAUCAAUTT against SUV39H1	inactive: -0.0775
CUCUGACUGUCACGAAUUATT against MTMR2	inactive: 0.495
GAAUCCGGACAAUCAGAUATT against NFIX	inactive: 0.481
GCAGGUUUAUCAAACAGAUTT against IHPK3	inactive: -0.173
GAGGGACUAUUUCACGAAATT against PARD3B	inactive: 0.306
GGAAAUCAUCUAUCGGUAUTT against ALOX15	inactive: 0.0369
GCAAAACCCGUUCGACAAATT against FZR1	inactive: 0.729
GGACAUGAGGAUAUAAGAATT against NTN4	inactive: 0.462
UCUUUUCUCUGUCAGCGAATT against PLA2G2E	inactive: -0.37
GGCAGUACUAUACAACUGATT against USH2A	inactive: 0.0673
GGAGCUCCUGUAUAAAGAATT against TOR3A	inactive: 0.225
CAGCUGGGUUGGACUGAUATT against CYBRD1	inactive: 0.623
CAACUGGAUGAACUACUAATT against DNAJC1	inactive: 0.134
GGAGUUCUGUAACUCACUUTT against SLC38A2	active: -1.04
GCCGUGACUUCAUAGAGGATT against SETDB1	inactive: 0.0517

Sequence	median seed-adjusted z-score
CGGCUAUGCGAGGAUCAAATT against KIF20A	inactive: 0.906
CCCUCGACAGAGUCAGUUUTT against NPC1	inactive: -0.195
GUAAGAAGAGUGAAAGCAATT against ZNF276	inactive: 0.318
UGGUUAAAGCGGAACCAGATT against NDUFA5	inactive: -0.0429
CGUUUGAUAAGAACAACUATT against SLC37A1	inactive: -0.102
GCAGGUCACUGUACAGUCUTT against PCDHA11	inactive: 0.582
AGUUCGAGCUGGAGAACGATT against CHST12	inactive: 0
UCAGUGCCCUUGUAUCAAATT against CYP4F2	inactive: -0.387
GGAGUGCGAUGCAAAGAUATT against EMR1	inactive: 0.255
CCAUAGUCAAAGGAACUAUTT against IKZF5	inactive: 0.399
CCCUGAUGGUGCUAACUGATT against ATF6	inactive: 0.26
GUCCAACUAUGUGCUCAAATT against PGLYRP1	inactive: -0.559
CAACGACUGCCUUCCCGAUTT against JAG2	inactive: -0.234
CCAUCGUACCUGUUACCAATT against KRIT1	inactive: -0.447
ACAUGUUUUUAGAAUUGCUTT against TST	inactive: 0
AGAGAAACCAAGUAUUUGATT against GSTM2	inactive: -0.464
UGCGAGUAGUGACCACGAATT against TCEB3C	inactive: 0.382
GAGCGAGUUUUACCUGAUATT against ABCA10	inactive: -0.104
GCCUAAAUCCCAAAUCGAATT against CXCL11	inactive: -0.135
GGACUUAGGAGGGCAGGAATT against ARFRP1	inactive: -0.329
CCACCUAAGCAAUAUAGCATT against VPS54	inactive: -0.128
GGAUCUGAACUCUGAUAUATT against LDHAL6B	inactive: -0.192

Sequence	median seed-adjusted z-score
CAGUCGAACAGGAUGAUGATT against ATG16L1	inactive: -0.187
GCCCAAUACUUGCAAGUGATT against KCNA2	active: -1.03
CCCUCUAUGAUGCAACCUATT against CFL1	inactive: 0.685
CUAUAGCAGGGAUUCGUCATT against TDRD5	inactive: -0.0961
GAAUUUUGUGGUUACACUATT against POLR1D	inactive: -0.0409
GUCCAAGAGUUGUUUAGAATT against RPUSD4	inactive: -0.0264
GUAUGAAGAUGAAUAAGGATT against ROCK1	inactive: -0.306
GACCCAUUGCUGUCCAACATT against EMID1	inactive: 0.979
CGGUGUACCGCAUCUUUAATT against 4-Mar	inactive: 0.168
GCGUGGCUCUGUUACUACATT against PPY	inactive: -0.0804
CCUAUUAAGUGUAAUCUCATT against UBE2R2	inactive: 0
GUGCUAAAUUUAGCUCAAATT against IL2	inactive: 0.0694
GUUGAAAGGUGAUGACCUUTT against HNRNPCL1	inactive: 0
GCAAGAUAGCUCAACCCAATT against ADAMTS12	inactive: -0.0721
ACUGGACUCCGUUUCUUAATT against GPLD1	inactive: 0.0152
GAAUAAACAUUCAUAGUGATT against SRD5A2	inactive: 0.185
CCAAUAACGCAGAUAGGUUTT against CATSPER1	inactive: 0.655
ACAUCAAGUGGAUGACUCATT against AKAP14	inactive: 0.136
GCUCUAAGUUUUACGGAAATT against CFI	inactive: -0.596
CUACUUCAUUGCUAAAAAUTT against GRPR	inactive: 0.121
CUAUAAAUGUCAACAAUGUTT against ZNF75D	inactive: 0
GAUGAUACCAGGCAUAUAATT against USP15	inactive: -0.405

Copied from the listing (23 entries):
Sequence	median seed-adjusted z-score
GCCUAAAUCCCAAAUCGAATT against CXCL11	inactive: -0.135
GGACUUAGGAGGGCAGGAATT against ARFRP1	inactive: -0.329
CCACCUAAGCAAUAUAGCATT against VPS54	inactive: -0.128
GGAUCUGAACUCUGAUAUATT against LDHAL6B	inactive: -0.192
CAGUCGAACAGGAUGAUGATT against ATG16L1	inactive: -0.187
GCCCAAUACUUGCAAGUGATT against KCNA2	active: -1.03
CCCUCUAUGAUGCAACCUATT against CFL1	inactive: 0.685
CUAUAGCAGGGAUUCGUCATT against TDRD5	inactive: -0.0961
GAAUUUUGUGGUUACACUATT against POLR1D	inactive: -0.0409
GUCCAAGAGUUGUUUAGAATT against RPUSD4	inactive: -0.0264
GUAUGAAGAUGAAUAAGGATT against ROCK1	inactive: -0.306
GACCCAUUGCUGUCCAACATT against EMID1	inactive: 0.979
CGGUGUACCGCAUCUUUAATT against 4-Mar	inactive: 0.168
GCGUGGCUCUGUUACUACATT against PPY	inactive: -0.0804
CCUAUUAAGUGUAAUCUCATT against UBE2R2	inactive: 0
GUGCUAAAUUUAGCUCAAATT against IL2	inactive: 0.0694
GUUGAAAGGUGAUGACCUUTT against HNRNPCL1	inactive: 0
GCAAGAUAGCUCAACCCAATT against ADAMTS12	inactive: -0.0721
ACUGGACUCCGUUUCUUAATT against GPLD1	inactive: 0.0152
GAAUAAACAUUCAUAGUGATT against SRD5A2	inactive: 0.185
CCAAUAACGCAGAUAGGUUTT against CATSPER1	inactive: 0.655
ACAUCAAGUGGAUGACUCATT against AKAP14	inactive: 0.136
GCUCUAAGUUUUACGGAAATT against CFI	inactive: -0.596

The results go on:

Sequence	median seed-adjusted z-score
GGAGGAGACUGUCCGUAUUTT against LPP	inactive: -0.103
AAAUCGCGACGACUAAAUATT against CCBE1	inactive: 0.964
CUAUUCUAGUGAUAGGAUUTT against SORBS2	inactive: 0.0391
GCUAACGACAAAUACGAGATT against TCF21	inactive: -0.15
GGGAGAUGCAGCUCUCAGATT against VENTX	inactive: 0.669
CUGCCGACAUGAUCAAGGATT against CYB5R2	inactive: -0.403
AAAUACGGGUGGAGAUCAATT against WIZ	inactive: 0.282
AGCUUAUGCAUUUGGCAAATT against APBA3	inactive: -0.119
GCAGAGUCGAGUGAAGACATT against FDXR	inactive: 0.6
UGCUUUAUAUGCUCAAGAATT against PNPLA6	inactive: 0.309
GAUUUAAACGAGAUUUACATT against SP140	inactive: 0.186
AGUGCAGUUUCAAUCAGAATT against FXYD6	inactive: -0.214
GCACUGAUGGGCUCACAUATT against SPINK4	inactive: -0.0134
GACCGUUGCUGUACUUACATT against EPM2A	inactive: 0.319
AGGUGACUGACAUCAGUGATT against ERF	inactive: -0.0288
GGAGUUCGUUCAGAGACCATT against MOCS2	inactive: 0.0327
GGACGGAAGCGAAAAUCGATT against KAT5	inactive: 0.32
AGUCUUCGCAGAUUAUGAATT against PYGM	inactive: -0.0689
CUAAGAGGAUUGAGGUAGATT against ZNF747	inactive: 0.379
GAAUAACCCAGACUAGGAATT against GPR125	inactive: 0.516
AGUACUGCGUGAAGACCAATT against CDC34	inactive: 0
CCUCGGUACUGGUCUUCAUTT against LRFN3	inactive: 0.483

Sequence	median seed-adjusted z-score
AAAUCGUGAUAGUUGACUATT against NANOS2	inactive: 0.565
GCUCCCAGCUUAUAUGGAUTT against COX4I1	inactive: -0.39
CCAAGACUCCAACCAUUUUTT against IKZF4	inactive: -0.426
GUCUCGGGCUAUUUCGUUATT against TMED2	inactive: 0.288
CAGCAGAGCCGAUCCAAGATT against GPR37L1	inactive: -0.0348
CCCGUGCCUUGAAGGAUGATT against CADM4	inactive: 0.16
GGAGGACUCAGACCACGAUTT against COMP	inactive: 0.331
GCCUCAGUUUGAAAUUGUUTT against TBRG1	active: -1.47
AGAUCAACAGCUCCGCCUATT against AIFM2	inactive: -0.106
UUAUCUCCAUGAACCUGUATT against BDKRB2	inactive: -0.311
CACGUAAUGUGGAAAAGCATT against ZNF19	inactive: 0
CGAUGUACUCUGUCCCGAATT against MYO9B	inactive: -0.0287
GGUUGAUUCUGGUCGUCGATT against ACADM	inactive: 0.127
CUGCUUGGACUGUAAGAAATT against RFFL	inactive: -0.437
CUACAUGACUGAAAGUACUTT against BAG4	inactive: 0.111
CAAGCGGACCAGGACCUAUTT against CSDC2	inactive: -0.321
CCGCCUGCCUUUAAAUCCATT against CEBPB	inactive: -0.748
AAGCUAUACUGAUUAGAAATT against TGFA	inactive: -0.22
CAACUACAACUGUGAGAUUTT against SF3A3	active: -2.1
